Experiment: Glycosylation pattern of Protein-A purified mAb analyzed with 2AB
Settings: end of 14-day production process
Method: At the end of main culture production process, cell culture fluid was collected through centrifugation. The supernatants were further subjected to small-scale mAb purification with Protein-A. Glycosylation pattern of the purified mAb was analyzed with 2AB.

For “anti-α-synuclein antibody L971: anti-human α-synuclein monoclonal antibody expressed by CHO L971 cell-line; CHO L971 cells produce Prasinezumab”, the “G2 form compared with the process with 4 mM L-cystine” value (FIG. 10C, Example 7, CHO L971, process with 2 mM L-cystine vs 4 mM L-cystine) was “comparable”, the “G1 form compared with the process with 3 mM L-cystine” value (FIG. 11A, Example 8, CHO L971, process with 6 mM L-cysteine vs 3 mM L-cystine) was “only marginally higher” and the “G2 form compared with the process with 3 mM L-cystine” value (FIG. 11B, Example 8, CHO L971, process with 6 mM L-cysteine vs 3 mM L-cystine) was “comparable”.
